Experimental data reported in PMC8316374.
No constants are given. Whether binding was seen depends on the method and setting. Binding seen in cells or lysates may run through a third protein. Tags and fused reporters may be left off the sequences shown.

Target: T1, SNX19-GFP (human) (UniProt Q92543)
T1 sequence: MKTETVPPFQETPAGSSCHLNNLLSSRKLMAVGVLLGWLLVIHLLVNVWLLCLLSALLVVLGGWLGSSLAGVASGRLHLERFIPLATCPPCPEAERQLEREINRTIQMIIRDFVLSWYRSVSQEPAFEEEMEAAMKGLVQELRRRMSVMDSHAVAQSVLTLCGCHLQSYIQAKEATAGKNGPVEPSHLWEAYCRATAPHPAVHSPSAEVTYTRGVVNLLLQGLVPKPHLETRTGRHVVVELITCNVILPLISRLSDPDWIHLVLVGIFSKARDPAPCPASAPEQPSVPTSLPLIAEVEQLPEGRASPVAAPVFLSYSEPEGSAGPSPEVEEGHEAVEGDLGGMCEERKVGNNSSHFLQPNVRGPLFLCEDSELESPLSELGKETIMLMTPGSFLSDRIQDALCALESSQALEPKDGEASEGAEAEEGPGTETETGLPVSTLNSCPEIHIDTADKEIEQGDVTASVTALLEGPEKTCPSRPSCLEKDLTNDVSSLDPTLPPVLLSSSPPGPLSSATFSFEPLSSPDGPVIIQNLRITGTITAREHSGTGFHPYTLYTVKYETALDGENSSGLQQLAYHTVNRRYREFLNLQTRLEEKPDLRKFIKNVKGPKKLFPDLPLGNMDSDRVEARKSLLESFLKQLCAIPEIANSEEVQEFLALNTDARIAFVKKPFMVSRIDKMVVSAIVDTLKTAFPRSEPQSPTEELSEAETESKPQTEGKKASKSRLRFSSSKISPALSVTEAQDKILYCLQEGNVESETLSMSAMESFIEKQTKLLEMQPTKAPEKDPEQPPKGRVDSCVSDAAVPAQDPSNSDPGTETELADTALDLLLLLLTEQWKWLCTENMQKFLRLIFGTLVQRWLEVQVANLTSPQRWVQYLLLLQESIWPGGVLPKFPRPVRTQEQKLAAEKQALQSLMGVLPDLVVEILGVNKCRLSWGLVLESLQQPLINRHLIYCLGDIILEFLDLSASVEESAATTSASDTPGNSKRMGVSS
Assay: co-IP; GFP-Trap magnetic beads on lysates of HEK293T cells transfected with SNX19-GFP; endogenous kinesin chains looked for by immunoblot

binding: no binding
Substance: kinesin-3 (human (endogenous in HEK293T))
